Data published in PubChem BioAssay AID1487 (National Center for Advancing Translational Sciences (NCATS), 2009).
Out of some 200,000 compounds screened, about 25 (0.01%) were called active. Inconclusive results, whose numbers are uncertain, are shown with a selection of clear calls. The call rests on the fitted dose curve; in most records, active means well fitted inhibition curve with a large enough effect in the signal ratio, with a control signal flat (not every such curve was filed as active); inconclusive means small, poorly fitted or top-dose-only effect, or effect the other way, or a change in a side signal; inactive means flat fitted curve, though single readings scatter; the % refers to the signal ratio. A potency beside an inconclusive call is a rough fit, not a confirmed value.

assay: qHTS Assay for Modulators of Lamin A Splicing; settings: HeLa LMNA splicing GFP/RFP minigene ratio, 48 h; ratio change, negative = inhibition: at 46.1 µM (top of the series) unless noted
In short: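 S3 HeLa stable clones carrying a lamin A-EGFP splicing minigene plus DsRed2 were seeded at 600 cells/well in Opti-MEM with 2% FBS, pin-dosed and incubated 48 h at 37°C. Acumen cytometry (488 nm) gave the GFP/RFP total-intensity ratio.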
On the % scale 0 is the no-effect control and ±100 the full control effect; potency means the concentration at half of the fitted maximal effect.

SMILES | ratio change, negative = inhibition | Potency
CCN1C(=O)CC(N2CCN(c3ccc(C(=O)c4ccccc4)cc3)CC2)C1=O (configuration not stated) | inconclusive: -29.1% | 
Cc1ccc(S(=O)(=O)Nc2ccc(Oc3cccnc3)nc2)cc1 |  | inconclusive: 0.158 µM [rising, full curve, poor fit]
CC(C)c1ccc(Nc2nc(NCc3ccco3)nc(N3CCOCC3)n2)cc1 | inconclusive: -6.54% | 
C#CCOc1ccc(/C=C2\SC(=S)N(Cc3cccnc3)C2=O)cc1 | inconclusive: -4.14% | 
COc1ccccc1NC(=O)/C(=C/c1cccc([N+](=O)[O-])c1)c1ccccc1 |  | inconclusive: 35.5 µM [falling, partial curve, poor fit]
COc1ccc(Cl)cc1Nc1cc(C)nc2nc(C)nn12 | inactive | 
CC(=O)Nc1ccc(N2N=C(C)C(N=Nc3ccccc3)C2=O)cc1 (configuration not stated) | inactive | 
OCCCNC(=S)Nc1ccc2nccnc2c1 | inconclusive: 17.8% [at 46 µM] | 
O=[N+]([O-])c1ccc(/C=N/n2c(COc3ccccc3)n[nH]c2=S)cc1 | inactive | 
O=C(Nc1ccc(Cl)cc1)Nc1ccccc1NS(=O)(=O)c1cccs1 |  | inconclusive: 35.5 µM [falling, single point]
COc1ccccc1CNc1ccnc(-c2c(C)noc2C)n1 | inconclusive: -32.2% | 
CCOC(=O)c1cc(S(=O)(=O)Nc2cc(OC)ccc2OC)[nH]n1 | inactive | 
CCOc1ccc(/C=C/C(=O)c2ccccc2)cc1OC | inconclusive: -19.4% | 
CCCCN1/C(=C/c2ccc3ccccc3[n+]2CC)Sc2ccccc21 |  | inconclusive: 14.1 µM [activator, single point]
COc1cccc2sc(N(Cc3cccnc3)C(=O)c3ccc4c(c3)OCCO4)nc12 | inconclusive: -6.78% [at 46 µM] | 
CN1CCc2cc(O)c(O)cc2C(c2ccccc2)C1 (configuration not stated) | inconclusive: -45.2% | 
Cc1ccc(C2OC34CCCCCC3C(C#N)(C(=N)O4)C2(C#N)C#N)cc1 (configuration not stated) | inactive | 
COc1ccc(CC(=O)c2ccc(OC)c(OC)c2)cc1 | inconclusive: -1.73% | 
CCCCc1c(O)nc(SCCC(=O)O)[nH]c1=O | inactive | 
CCCCOc1ccc(Cc2n[nH]c(=S)n2N)cc1 | inconclusive: -17.8% | 
O=C(O)CSc1nnc(COc2cccc3ccccc23)n1Cc1ccccc1 | inconclusive: 0.612% [at 46 µM] | 

3 compounds from above, ordered by count of non-hydrogen atoms, ascending.
SMILES | ratio change, negative = inhibition | Potency
COc1ccc(CC(=O)c2ccc(OC)c(OC)c2)cc1 | inconclusive: -1.73% | 
CCOC(=O)c1cc(S(=O)(=O)Nc2cc(OC)ccc2OC)[nH]n1 | inactive | 
O=[N+]([O-])c1ccc(/C=N/n2c(COc3ccccc3)n[nH]c2=S)cc1 | inactive | 

(list continues)

SMILES | ratio change, negative = inhibition | Potency
Clc1cncc(Cl)c1NNc1c2ccccc2nc2ccccc12 | inactive | 
CCC(C)(C)NC(=O)C1CCN(S(=O)(=O)c2ccc3c(c2)CCCN3C(C)=O)CC1 | inconclusive: -1.78% [at 46 µM] | 
O=C(CN1CCNCC1)Nc1ccc(Oc2ccccc2)cc1 | inactive | 
Clc1cnccn1 | inconclusive: -11.9% | 
CCOC(=O)C1CCN(C(C)=C2C(=O)c3ccccc3C2=O)CC1 | inactive | 
COCCCNC(=O)c1cc2cc(S(=O)(=O)N3CCCCC3)ccc2n1C | inconclusive: 7.86% [at 46 µM] | 
COC(=O)c1c(NC(=O)c2ccc(S(=O)(=O)N3CCC(C)CC3)cc2)sc2c1CCN(C)C2 | inconclusive: 18.3% [at 46 µM] | 
Cc1cc(N2CC(C)OC(C)C2)nc2ccccc12 (configuration not stated) | inconclusive: -22.3% [at 46 µM] | 
CCCCNC(=O)CSc1nc2ccsc2c(=O)n1CCCC(=O)NCCc1ccc(S(N)(=O)=O)cc1 | inconclusive: 25% [at 9.22 µM] | 
COc1ccc(-n2ncc(C(=O)NCc3ccco3)c2C2CCN(C(=O)OC(C)(C)C)CC2)cc1 | inconclusive: 10.7% [at 46 µM] | 
CCOc1ccccc1CNC(=O)c1c([N+](=O)[O-])c(C)nn1C | inactive | 
O=C(Nc1cccnc1)c1ccc(COc2ccccc2Br)o1 |  | inconclusive: 35.5 µM [falling, single point]
O=C(CC1N=C2c3ccccc3N=C(SCc3ccc(F)cc3)N2C1=O)NCc1ccc2c(c1)OCO2 (configuration not stated) | inconclusive: 6.46% [at 46 µM] | 
O=C(O)c1ccccc1-c1ccccc1C(=O)Nc1cccc(O)c1 |  | inconclusive: 0.0501 µM [activator, full curve, poor fit]
N#C/C(=C\c1ccc(N2CCOCC2)cc1)c1ccccc1 |  | inconclusive: 35.5 µM [fluorescent, single point]
COc1ccccc1Nc1nc(-c2ccccc2F)nc2ccccc12 | inconclusive: -42.7% [at 46 µM] | 
O=C(O)C1CCCCC1C(=O)Nc1ccc2c(c1)OCCO2 (configuration not stated) | inactive | 
COc1ccccc1/C=C/C(=O)Oc1cccc2cccnc12 | inconclusive: -20.7% [at 46 µM] | 
Cc1ccccc1S(=O)(=O)NCc1cccnc1 | inactive | 
Cc1nc2cc(NC(=O)N3CCCC3)ccc2n1C | inconclusive: 17.1% [at 46 µM] | 
COc1ccccc1CNC(=O)c1cc2c(=O)n(Cc3cccs3)ccc2nc1C | inconclusive: -13.6% [at 46 µM] | 
